Laboratory results from PMC3388087 (PLoS ONE, 2012).
These are yes or no findings as the source states them, for the method shown.

Target: human DGCR8 NC9 (residues 499-751) (human) (UniProt Q8WYQ5)
Assay: SEC; size exclusion chromatography, last step of the purification; SEC buffer 400 mM NaCl, 20 mM Tris pH 8.0, 1 mM DTT; elution volumes compared (bat star HBD 13.8 mL; human HBD dimer; human NC9 monomer 2.6 mL later); both purified

- binding: no binding
B1: human DGCR8 NC9 (residues 499-751) (domain or fragment, UniProt Q8WYQ5 499-751)
chain: TKKEFVINPNGKSEVCILHEYMQRVLKVRPVYNFFECENPSEPFGASVTIDGVTYGSGTASSKKLAKNKAARATLEILIPDFVKQTSEEKPKDSEELEYFNHISIEDSRVYELTSKAGLLSPYQILHECLKRNHGMGDTSIKFEVVPGKNQKSEYVMACGKHTVRGWCKNKRVGKQLASQKILQLLHPHVKNWGSLLRMYGRESSKMVKQETSDKSVIELQQYAKKNKPNLHILSKLQEEMKRLAEEREETRK
